{"sequences": {"note": "By UniProt entry, the sequences of proteins in these tests, tags left out. Where a name states a change or a piece, a line headed by the entry shows the natural chain unless it says otherwise. Residues count along the entry.", "GST fusion to WT ERα 176–253 peptide (P03372, residues 176-253)": "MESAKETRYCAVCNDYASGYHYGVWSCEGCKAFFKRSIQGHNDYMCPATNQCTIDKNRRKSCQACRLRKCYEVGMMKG"}, "source": "paper PMC4818104", "binders": {"B1": {"name": "His-tagged striatin AAs 1–203 (domain or fragment, UniProt O43815 1-203)", "chain": "MDEQAGPGVFFSNNHPGAGGAKGLGPLAEAAAAGDGAAAAGAARAQYSLPGILHFLQHEWARFEVERAQWEVERAELQAQIAFLQGERKGQENLKKDLVRRIKMLEYALKQERAKYHKLKYGTELNQGDMKPPSYDSDEGNETEVQPQQNSQLMWKQGRQLLRQYLQEVGYTDTILDVKSKRVRALLGFSSDVTDREDDKNQD"}}, "key": {"[1]": {"target": "GST fusion to KRR->AAA mutant ERα 176–253 peptide (human) (UniProt P03372)", "experiment": "pull-down; purified GST fusion proteins mixed with cell lysates, rocked at 4°C overnight, washed 3 times with PBS, SDS-PAGE and immunoblotting; equal amount of each fusion protein; only the target purified"}, "[2]": {"target": "GST fusion to WT ERα 176–253 peptide (human) (UniProt P03372)", "experiment": "pull-down; purified GST fusion proteins mixed with cell lysates, rocked at 4°C overnight, washed 3 times with PBS, SDS-PAGE and immunoblotting; equal amount of each fusion protein; only the target purified"}}, "note": "No constants are given. Whether binding was seen depends on the method and setting. Binding seen in cells or lysates may run through a third protein. Some results given as binding are weak or reduced against the parent protein; the word gives no strength. Tags and fused reporters may be left off the sequences shown."}
{"binder": "B1", "values": [{"measurement": "binding", "setting": "[1]", "value": "no binding"}, {"measurement": "binding", "setting": "[2]", "value": "binds"}]}
